The other results are listed elsewhere or left out.
Tests used:
Assay in all cases: log2 fold change, soluble protein after heating vs DMSO (PISA); higher = thermal stabilisation; K562 cells, 10 uM, 30 min; active = over 0.2 and 3.5 SD of the protein, either way, in both replicates (recomputed)
saracatinib = compound: CN1CCN(CCOc2cc(OC3CCOCC3)c3c(Nc4c(Cl)ccc5c4OCO5)ncnc3c2)CC1 [saracatinib]
Method in brief: (§1)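 Soluble protein was quantified by TMTpro 16plex LC-MS/MS after channel sums were equalised. It was obtained as the supernatant after 21,000xg for 90 min from pooled aliquots of K562 cells (2×10^6 cells/mL, 10 μM compound, 30 min) heated for 3 min across 48°C-58°C and extracted in PBS with 0.5% NP-40 at 4°C. Thermal stability values are relative to control samples and come from duplicates. They are given as log2 fold changes.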

Sequences of proteins named here, by UniProt entry; tags and fusion partners are left off. A change or cut given only in a name is not applied to a line headed by its entry.
UniProt P15104, whole entry, looked up: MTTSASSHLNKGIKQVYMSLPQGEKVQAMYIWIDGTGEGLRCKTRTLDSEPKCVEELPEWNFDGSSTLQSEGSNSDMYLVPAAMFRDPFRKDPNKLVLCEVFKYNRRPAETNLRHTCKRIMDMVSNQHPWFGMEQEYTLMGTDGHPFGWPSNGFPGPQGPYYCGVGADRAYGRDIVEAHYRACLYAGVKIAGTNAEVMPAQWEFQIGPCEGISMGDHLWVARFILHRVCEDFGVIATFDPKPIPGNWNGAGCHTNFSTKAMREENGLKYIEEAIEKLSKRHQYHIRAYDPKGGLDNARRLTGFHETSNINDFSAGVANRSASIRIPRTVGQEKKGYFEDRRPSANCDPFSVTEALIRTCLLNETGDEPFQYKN
UniProt Q9NPB8: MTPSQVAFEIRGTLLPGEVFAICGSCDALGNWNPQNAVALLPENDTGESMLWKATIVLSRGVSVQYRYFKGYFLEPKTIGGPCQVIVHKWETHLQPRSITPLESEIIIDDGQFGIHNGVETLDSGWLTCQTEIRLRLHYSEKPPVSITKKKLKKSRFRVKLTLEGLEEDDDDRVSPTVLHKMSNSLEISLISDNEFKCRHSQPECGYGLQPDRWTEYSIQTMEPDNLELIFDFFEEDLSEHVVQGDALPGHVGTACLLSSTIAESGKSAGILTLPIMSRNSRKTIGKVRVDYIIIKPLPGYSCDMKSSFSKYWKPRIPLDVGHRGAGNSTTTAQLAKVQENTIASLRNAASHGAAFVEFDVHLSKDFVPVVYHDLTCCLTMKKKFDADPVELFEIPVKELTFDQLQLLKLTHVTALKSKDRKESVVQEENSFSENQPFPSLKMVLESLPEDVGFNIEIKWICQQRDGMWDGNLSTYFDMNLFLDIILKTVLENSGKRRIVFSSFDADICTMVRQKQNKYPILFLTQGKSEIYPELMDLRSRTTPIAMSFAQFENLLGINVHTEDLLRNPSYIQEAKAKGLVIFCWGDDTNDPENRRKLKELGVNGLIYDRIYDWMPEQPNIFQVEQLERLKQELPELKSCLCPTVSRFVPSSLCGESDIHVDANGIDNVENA
UniProt P49840: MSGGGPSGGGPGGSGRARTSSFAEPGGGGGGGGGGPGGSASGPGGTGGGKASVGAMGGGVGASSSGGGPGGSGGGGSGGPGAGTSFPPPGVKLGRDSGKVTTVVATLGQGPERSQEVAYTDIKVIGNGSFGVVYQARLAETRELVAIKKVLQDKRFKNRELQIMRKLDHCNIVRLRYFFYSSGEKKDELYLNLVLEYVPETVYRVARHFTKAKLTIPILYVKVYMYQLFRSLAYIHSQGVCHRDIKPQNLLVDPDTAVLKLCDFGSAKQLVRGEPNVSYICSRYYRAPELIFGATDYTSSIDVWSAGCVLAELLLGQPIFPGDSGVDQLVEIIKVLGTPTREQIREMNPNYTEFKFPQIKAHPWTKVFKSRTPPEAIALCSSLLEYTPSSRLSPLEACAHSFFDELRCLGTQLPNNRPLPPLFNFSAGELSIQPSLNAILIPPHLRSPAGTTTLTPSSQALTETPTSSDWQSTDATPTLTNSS
UniProt Q86UL3: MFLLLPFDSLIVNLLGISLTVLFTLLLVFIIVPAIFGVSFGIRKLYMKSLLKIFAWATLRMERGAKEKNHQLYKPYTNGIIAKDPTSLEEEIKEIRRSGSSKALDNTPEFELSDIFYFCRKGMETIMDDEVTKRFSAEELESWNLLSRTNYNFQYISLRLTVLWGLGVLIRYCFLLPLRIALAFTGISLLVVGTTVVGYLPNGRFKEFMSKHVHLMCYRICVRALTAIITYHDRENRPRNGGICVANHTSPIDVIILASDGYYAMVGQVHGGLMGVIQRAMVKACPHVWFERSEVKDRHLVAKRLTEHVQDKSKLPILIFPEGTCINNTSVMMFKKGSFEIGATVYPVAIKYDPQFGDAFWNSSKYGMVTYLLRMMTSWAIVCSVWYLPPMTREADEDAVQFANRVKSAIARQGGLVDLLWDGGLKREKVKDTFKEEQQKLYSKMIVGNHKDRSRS
UniProt Q5T7V8: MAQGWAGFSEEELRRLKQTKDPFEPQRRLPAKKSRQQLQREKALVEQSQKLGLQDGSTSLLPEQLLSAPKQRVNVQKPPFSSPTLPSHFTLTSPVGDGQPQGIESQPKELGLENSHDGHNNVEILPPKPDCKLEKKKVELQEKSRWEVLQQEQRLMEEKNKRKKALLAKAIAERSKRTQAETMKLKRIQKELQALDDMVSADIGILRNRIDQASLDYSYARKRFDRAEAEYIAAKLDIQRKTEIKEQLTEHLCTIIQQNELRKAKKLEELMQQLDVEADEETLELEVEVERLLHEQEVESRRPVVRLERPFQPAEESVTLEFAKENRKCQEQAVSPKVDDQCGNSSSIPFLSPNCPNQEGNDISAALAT
UniProt Q9Y2X7: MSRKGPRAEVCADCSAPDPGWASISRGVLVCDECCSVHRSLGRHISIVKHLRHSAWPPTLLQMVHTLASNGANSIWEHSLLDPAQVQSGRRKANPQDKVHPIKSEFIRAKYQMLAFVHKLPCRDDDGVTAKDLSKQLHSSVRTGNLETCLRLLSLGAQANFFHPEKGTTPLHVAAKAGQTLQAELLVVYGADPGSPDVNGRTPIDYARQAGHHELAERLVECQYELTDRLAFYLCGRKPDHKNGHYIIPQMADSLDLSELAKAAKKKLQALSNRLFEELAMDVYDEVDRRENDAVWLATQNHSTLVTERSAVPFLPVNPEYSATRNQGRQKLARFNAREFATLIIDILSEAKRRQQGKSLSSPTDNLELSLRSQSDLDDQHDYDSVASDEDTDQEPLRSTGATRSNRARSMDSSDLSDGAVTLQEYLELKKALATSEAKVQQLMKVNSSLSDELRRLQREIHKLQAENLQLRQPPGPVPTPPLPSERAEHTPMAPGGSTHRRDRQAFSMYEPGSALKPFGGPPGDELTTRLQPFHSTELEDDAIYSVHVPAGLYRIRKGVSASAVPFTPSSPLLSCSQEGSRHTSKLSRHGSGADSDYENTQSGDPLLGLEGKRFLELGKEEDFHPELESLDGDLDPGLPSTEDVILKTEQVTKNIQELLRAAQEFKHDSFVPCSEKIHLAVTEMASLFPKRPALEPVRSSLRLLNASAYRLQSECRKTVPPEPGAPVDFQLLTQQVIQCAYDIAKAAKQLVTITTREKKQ
UniProt P49448: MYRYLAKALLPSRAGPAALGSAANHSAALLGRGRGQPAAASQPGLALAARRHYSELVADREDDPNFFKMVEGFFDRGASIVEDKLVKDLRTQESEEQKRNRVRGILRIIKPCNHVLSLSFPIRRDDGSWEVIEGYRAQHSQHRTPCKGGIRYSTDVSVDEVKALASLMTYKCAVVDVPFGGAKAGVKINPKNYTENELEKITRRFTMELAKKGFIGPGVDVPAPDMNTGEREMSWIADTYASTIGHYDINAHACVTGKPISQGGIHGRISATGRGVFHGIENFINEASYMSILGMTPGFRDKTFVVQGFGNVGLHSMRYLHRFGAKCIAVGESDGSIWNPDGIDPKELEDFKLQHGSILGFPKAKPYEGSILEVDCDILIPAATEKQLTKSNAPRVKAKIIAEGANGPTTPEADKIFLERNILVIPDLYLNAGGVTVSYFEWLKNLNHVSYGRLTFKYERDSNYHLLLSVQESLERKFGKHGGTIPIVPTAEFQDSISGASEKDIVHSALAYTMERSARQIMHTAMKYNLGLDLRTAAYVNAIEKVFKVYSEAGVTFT
UniProt P00367: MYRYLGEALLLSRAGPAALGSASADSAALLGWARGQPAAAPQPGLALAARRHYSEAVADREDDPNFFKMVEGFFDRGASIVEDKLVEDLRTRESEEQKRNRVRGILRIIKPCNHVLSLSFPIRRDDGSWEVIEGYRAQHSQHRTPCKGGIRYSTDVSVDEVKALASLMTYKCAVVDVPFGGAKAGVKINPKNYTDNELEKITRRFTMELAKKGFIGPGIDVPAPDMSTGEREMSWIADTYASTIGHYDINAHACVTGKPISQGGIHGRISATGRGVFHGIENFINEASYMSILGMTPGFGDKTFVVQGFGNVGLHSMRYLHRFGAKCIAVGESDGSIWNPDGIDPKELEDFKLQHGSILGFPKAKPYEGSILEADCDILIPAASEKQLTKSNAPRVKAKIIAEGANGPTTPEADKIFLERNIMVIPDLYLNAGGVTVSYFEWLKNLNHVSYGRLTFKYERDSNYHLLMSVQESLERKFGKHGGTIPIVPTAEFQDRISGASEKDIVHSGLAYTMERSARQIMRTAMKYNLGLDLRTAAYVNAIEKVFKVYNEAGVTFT
UniProt P36915, whole entry, looked up: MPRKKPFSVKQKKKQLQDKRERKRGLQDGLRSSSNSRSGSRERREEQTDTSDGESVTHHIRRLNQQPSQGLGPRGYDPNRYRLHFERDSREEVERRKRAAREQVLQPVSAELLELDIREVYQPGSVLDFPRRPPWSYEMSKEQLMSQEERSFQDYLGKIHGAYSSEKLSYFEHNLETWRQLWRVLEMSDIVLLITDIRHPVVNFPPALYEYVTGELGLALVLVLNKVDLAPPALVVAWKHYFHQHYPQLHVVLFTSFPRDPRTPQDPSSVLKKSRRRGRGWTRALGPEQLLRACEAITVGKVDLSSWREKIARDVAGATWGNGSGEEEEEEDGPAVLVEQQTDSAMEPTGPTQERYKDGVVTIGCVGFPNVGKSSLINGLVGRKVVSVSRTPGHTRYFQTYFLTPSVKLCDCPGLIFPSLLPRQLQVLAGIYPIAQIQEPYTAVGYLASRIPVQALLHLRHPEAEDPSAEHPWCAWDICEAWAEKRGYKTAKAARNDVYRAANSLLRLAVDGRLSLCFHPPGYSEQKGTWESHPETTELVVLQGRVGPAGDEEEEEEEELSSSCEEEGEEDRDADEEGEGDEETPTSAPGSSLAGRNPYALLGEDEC

sotrastaurin = compound: CN1CCN(c2nc(C3=C(c4c[nH]c5ccccc45)C(=O)NC3=O)c3ccccc3n2)CC1 [sotrastaurin]
Method in brief: as §1

Tubastatin A = compound: CN1CCc2c(c3ccccc3n2Cc2ccc(C(=O)NO)cc2)C1 [Tubastatin A]
Method in brief: as §1

[1] = compound: CNC(=O)C1=CC=CC=C1NC2=NC(=NC=C2Cl)NC3=C(C=C(C=C3)N4CCOCC4)OC
Method in brief: as §1

defactinib = compound: CNC(=O)c1ccc(Nc2ncc(C(F)(F)F)c(NCc3nccnc3N(C)S(C)(=O)=O)n2)cc1 [defactinib]
Method in brief: as §1

rucaparib = compound: CNCc1ccc(-c2[nH]c3cc(F)cc4c3c2CCNC4=O)cc1 [rucaparib]
Method in brief: as §1

[2] = compound: CNc1nc(-c2ccc3c(N)n[nH]c3c2)cc(N2C[C@@H](C(=O)NC3CCCCC3)CC[C@H]2C)n1
Method in brief: as §1

encorafenib = compound: COC(=O)N[C@@H](C)CNc1nccc(-c2cn(C(C)C)nc2-c2cc(Cl)cc(NS(C)(=O)=O)c2F)n1 [encorafenib]
Method in brief: as §1

[3] = compound: COC(=O)[C@H](CCSC)NC(=O)C1=C(C=C(C=C1)NC[C@H](CS)N)C2=CC=CC=C2
Method in brief: as §1

[4] = compound: COC1=CC=C(C=C1)CN2C=CC3=C2C=C(C=C3)C(=O)NO
Method in brief: as §1

filanesib = compound: CON(C)C(=O)N1N=C(c2cc(F)ccc2F)S[C@@]1(CCCN)c1ccccc1 [filanesib]
Method in brief: as §1

zotarolimus = compound: CO[C@H]1C[C@@H]2CC[C@@H](C)[C@@](O)(O2)C(=O)C(=O)N2CCCC[C@H]2C(=O)O[C@H]([C@H](C)C[C@@H]2CC[C@H](n3cnnn3)[C@H](OC)C2)CC(=O)[C@H](C)/C=C(\C)[C@@H](O)[C@@H](OC)C(=O)[C@H](C)C[C@H](C)/C=C/C=C/C=C/1C [zotarolimus]
Method in brief: as §1

idasanutlin = compound: COc1cc(C(=O)O)ccc1NC(=O)[C@@H]1N[C@@H](CC(C)(C)C)[C@](C#N)(c2ccc(Cl)cc2F)[C@H]1c1cccc(Cl)c1F [idasanutlin]
Method in brief: as §1

alisertib = compound: COc1cc(Nc2ncc3c(n2)-c2ccc(Cl)cc2C(c2c(F)cccc2OC)=NC3)ccc1C(=O)O [alisertib]
Method in brief: as §1

[5] = compound: COc1cc2nc(-c3cc(F)ccc3O)nc(N[C@@H]3CNC[C@H]3C(C)(C)O)c2cc1OC
Method in brief: as §1

gefitinib = compound: COc1cc2ncnc(Nc3ccc(F)c(Cl)c3)c2cc1OCCCN1CCOCC1 [gefitinib]
Method in brief: as §1

[6] = compound: COc1cccc2cc(-c3nc([C@H]4CC[C@H](C(=O)O)CC4)n4ncnc(N)c34)[nH]c12
Method in brief: as §1

lapatinib = compound: CS(=O)(=O)CCNCc1ccc(-c2ccc3ncnc(Nc4ccc(OCc5cccc(F)c5)c(Cl)c4)c3c2)o1 [lapatinib]
Method in brief: as §1

pictilisib = compound: CS(=O)(=O)N1CCN(Cc2cc3nc(-c4cccc5[nH]ncc45)nc(N4CCOCC4)c3s2)CC1 [pictilisib]
Method in brief: as §1

alvocidib = compound: CN1CC[C@H](c2c(O)cc(O)c3c(=O)cc(-c4ccccc4Cl)oc23)[C@H](O)C1 [alvocidib]
Method in brief: as §1

| Target | log2 fold change (saracatinib) | log2 fold change (sotrastaurin) | log2 fold change (Tubastatin A) | log2 fold change [1] | log2 fold change (defactinib) | log2 fold change (rucaparib) | log2 fold change [2] | log2 fold change (encorafenib) | log2 fold change [3] | log2 fold change [4] | log2 fold change (filanesib) | log2 fold change (zotarolimus) | log2 fold change (idasanutlin) | log2 fold change (alisertib) | log2 fold change [5] | log2 fold change (gefitinib) | log2 fold change [6] | log2 fold change (lapatinib) | log2 fold change (pictilisib) | log2 fold change (alvocidib) |
| --- | --- | --- | --- | --- | --- | --- | --- | --- | --- | --- | --- | --- | --- | --- | --- | --- | --- | --- | --- | --- |
| GLUL (UniProt P15104) | inactive: 0.012 | inactive: -0.058 | inactive: 0.048 | inactive: 0.142 | inactive: 0.036 | inactive: -0.039 | inactive: -0.153 | inactive: -0.02 | inactive: 0.038 | inactive: 0.11 | inactive: 0.002 | inactive: -0.154 | inactive: 0.032 | inactive: -0.013 | inactive: -0.061 | inactive: 0.01 | active: -0.225 | inactive: -0.032 | inactive: -0.001 |  |
| GPCPD1 (UniProt Q9NPB8) | inactive: -0.053 | inactive: -0.063 |  |  |  | inactive: 0.146 | inactive: 0.254 | inactive: 0.164 |  |  | inactive: 0.139 | inactive: -0.066 |  | inactive: -0.096 | inactive: -0.041 |  | inactive: -0.101 | inactive: 0.027 | inactive: -0.101 | inactive: -0.301 |
| GSK3A (UniProt P49840) | inactive: -0.007 | active: 0.337 | inactive: -0.007 | inactive: -0.009 | inactive: 0.18 | inactive: 0.22 | inactive: -0.041 | inactive: 0.005 | inactive: -0.051 | inactive: -0.028 | inactive: -0.087 | inactive: -0.029 | inactive: -0.107 | inactive: 0.051 | inactive: 0.088 | inactive: -0.008 | inactive: 0.045 | inactive: -0.016 | inactive: 0.188 |  |
| GPAT4 (UniProt Q86UL3) | inactive: 0.042 | inactive: 0.046 | inactive: -0.039 | inactive: 0.04 | inactive: -0.017 | inactive: 0.055 | inactive: -0.069 | inactive: -0.021 | inactive: 0.031 | inactive: -0.034 | inactive: -0.024 | inactive: 0.055 | inactive: -0.093 | inactive: 0.01 | inactive: 0.188 | inactive: 0.006 | inactive: -0.046 | inactive: -0.031 | inactive: 0.036 |  |
| GORAB (UniProt Q5T7V8) | inactive: -0.109 | inactive: 0.033 | inactive: -0.01 | inactive: 0.062 | inactive: -0.055 | inactive: 0.015 | inactive: 0.115 | inactive: 0.014 | inactive: 0.101 |  | inactive: 0.001 |  |  |  | inactive: 0.234 | inactive: -0.004 |  | inactive: -0.23 |  |  |
| GIT1 isoform 3 (UniProt Q9Y2X7) | inactive: -0.274 | inactive: -0.283 |  |  |  | inactive: 0.547 | inactive: 0.133 | inactive: 0.263 |  | inactive: -0.125 | inactive: 0.081 | inactive: -0.06 | inactive: 0.112 | inactive: -0.03 | inactive: -0.006 |  | inactive: 0.002 | inactive: 0.04 |  | inactive: -0.166 |
| GLUD2 (UniProt P49448) | active: 0.305 | inactive: 0.056 | inactive: -0.016 | inactive: 0.051 | inactive: 0.008 | inactive: 0.003 | inactive: 0.178 | inactive: -0.117 | inactive: -0.042 | inactive: -0.041 | inactive: -0.032 | inactive: 0.123 | inactive: -0.07 | inactive: -0.06 | inactive: -0.003 | inactive: 0.061 | inactive: 0.023 | inactive: 0.191 | inactive: 0.216 |  |
| GLUD1 (UniProt P00367) | inactive: 0.161 | inactive: 0.14 | inactive: -0.04 | inactive: 0.096 | inactive: 0.041 | inactive: -0.099 | inactive: 0.089 | inactive: -0.056 | inactive: 0.002 | inactive: -0.012 | inactive: -0.118 | inactive: -0.007 | inactive: -0.047 | inactive: -0.039 | inactive: -0.001 | inactive: 0.076 | inactive: 0.057 | inactive: 0.178 | active: 0.367 |  |
| GNL1 (UniProt P36915) | inactive: 0.013 | inactive: 0.013 | inactive: 0.018 | inactive: 0.009 | inactive: 0.023 | inactive: -0.039 | inactive: 0.016 | inactive: 0.021 | inactive: -0.011 | inactive: 0.047 | inactive: -0.066 | inactive: 0.049 | inactive: -0.056 | inactive: -0.107 | inactive: 0.039 | inactive: 0.031 | inactive: 0.061 | inactive: 0.011 | inactive: 0.04 |  |

Taken from above.
GORAB (UniProt Q5T7V8) | log2 fold change [1]: inactive: 0.062
GSK3A (UniProt P49840) | log2 fold change (sotrastaurin): active: 0.337

From the supplement of paper PMC10849652
